{"sequences": {"note": "Sequences of proteins named here, by UniProt entry; tags and fusion partners are left off. A change or cut given only in a name is not applied to a line headed by its entry.", "UniProt O00167": "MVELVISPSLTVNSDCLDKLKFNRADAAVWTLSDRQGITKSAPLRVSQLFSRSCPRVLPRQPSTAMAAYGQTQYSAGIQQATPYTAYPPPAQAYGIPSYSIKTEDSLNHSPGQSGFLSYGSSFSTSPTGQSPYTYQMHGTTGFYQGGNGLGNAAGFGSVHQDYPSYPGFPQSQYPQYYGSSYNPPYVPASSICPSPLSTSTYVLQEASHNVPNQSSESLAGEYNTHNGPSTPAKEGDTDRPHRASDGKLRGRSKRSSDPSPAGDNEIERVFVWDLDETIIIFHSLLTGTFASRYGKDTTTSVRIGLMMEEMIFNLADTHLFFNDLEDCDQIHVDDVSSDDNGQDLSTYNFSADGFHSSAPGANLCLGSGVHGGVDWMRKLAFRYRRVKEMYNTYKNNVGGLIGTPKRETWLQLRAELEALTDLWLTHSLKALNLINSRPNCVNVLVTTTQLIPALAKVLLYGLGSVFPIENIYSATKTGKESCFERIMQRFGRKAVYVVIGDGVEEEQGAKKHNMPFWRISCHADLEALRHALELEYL"}, "source": "PubChem BioAssay AID720540", "about": "(National Center for Advancing Translational Sciences (NCATS), 2013)", "note": "About 460 (35%) of roughly 1,300 compounds were called active. Inconclusive means that the source gave no clear call. Such entries were picked first, then a sample of the others. Calls come from the whole dose curve; as a rule, active = well fitted inhibition curve with a large enough effect; inconclusive = small, poorly fitted or top-dose-only effect; inactive = flat fitted curve, though single readings scatter. Potencies beside an inconclusive call are fits to weak or partial responses and may not hold up. Potency is the fitted concentration of half-maximal effect."}
{"molecular_target": "Protein phosphatase EYA2 (Homo sapiens) (UniProt O00167)", "assay": "qHTS for Inhibitors of the Phosphatase Activity of Eya2: Confirmatory Assay for Cherry-picked Compounds; note: nearly all actives have a fitted effect of over 65% in size;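 for activity change, negative = inhibition: 0% = DMSO wells and -100% = EGTA control giving full inhibition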", "settings": "purified EYA2 phosphatase activity, qHTS confirmation; activity change, negative = inhibition: at 46.1 µM (top of the series)", "outline": "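Eya2 (0.2 uM working solution) preincubated 10 min at room temperature with compound in pH 7.5 HEPES buffer with MgCl2, BSA, DTT. OMFP added (50 uM working solution), 10 min more; fluorescence 485/525 nm, normalized to EGTA and DMSO.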"}
{"smiles": "CCC(CO)Nc1ccc(-c2n[nH]c(=O)c3ccccc23)cc1[N+](=O)[O-]", "note": "(stereo not drawn)", "Potency": "inconclusive: 15.1 µM [inhibitor, single point]"}
{"smiles": "COc1cc(NC(=O)c2cccs2)c(OC)cc1NC(=O)Nc1ccc(F)cc1", "activity change, negative = inhibition": "inactive: -26.5%"}
{"smiles": "Cc1sc(NC(=O)C2=COCCO2)c(C(N)=O)c1C", "Potency": "active: 7.57 µM"}
{"smiles": "CCN(CC)c1ccc(NC(=O)c2ccc3c(c2)c(C)c(C)n3C)cc1", "Potency": "active: 13.5 µM"}
{"smiles": "CCC(=O)NC(=S)Nc1ccc(NC(=O)COc2ccc([N+](=O)[O-])cc2)cc1", "activity change, negative = inhibition": "inactive: -14.9%"}
{"smiles": "Cc1ccccc1N=C1NC(=O)/C(=C/c2cccn2C)S1", "Potency": "inconclusive: 12 µM [inhibitor, partial curve]"}
{"smiles": "O=c1nc(-c2ccccc2)c2cc(Cl)ccc2[nH]1", "Potency": "inconclusive: 16.9 µM [inhibitor, partial curve]"}
{"smiles": "S=C(Nc1ccc2c(c1)OCCO2)Nc1ccc2c(c1)OCO2", "activity change, negative = inhibition": "inactive: -21.9%"}
{"smiles": "CCCCn1c2ccc(C)cc2c2nnc(SCCN3CCCCC3)nc21", "Potency": "inconclusive: 21.3 µM [inhibitor, partial curve]"}
{"smiles": "COc1ccc(Nc2nnc(-c3ccc(O)cc3)c3ccccc23)cc1C(N)=O", "Potency": "inconclusive: 15.1 µM [inhibitor, partial curve]"}
{"smiles": "Cc1cc(NC(=O)c2cccs2)cc(-c2nc3ncccc3o2)c1O", "activity change, negative = inhibition": "inactive: -12.1%"}
{"smiles": "CC1=C/C(=C\\c2ccc(N(C)C)cc2)c2ccccc21", "Potency": "active: 7.57 µM"}
{"smiles": "O=C(/C=C/c1ccccc1)Oc1ccc(C(=S)N2CCOCC2)cc1", "Potency": "active: 1.51 µM"}
{"smiles": "Cc1cc(/C=C2\\C(=N)N3N=C(CC(=O)N4CCOCC4)SC3=NC2=O)c(C)n1Cc1ccccc1", "activity change, negative = inhibition": "inactive: -27.6%"}
{"smiles": "COc1ccc(C2c3[nH]c4ccccc4c3C[C@H]3C(=O)N(C4CCN(Cc5ccccc5)CC4)CC(=O)N23)cc1OC", "note": "(stereo partly drawn)", "Potency": "inconclusive: 19 µM [inhibitor, partial curve]"}
{"smiles": "COc1cc(C=NO)nc(-c2ccccn2)c1", "Potency": "active: 1.2 µM"}
{"smiles": "CC1(C)CC(=O)C=C(c2ccc(COC(=O)c3cc(F)cc(F)c3)cc2)C1=O", "Potency": "inconclusive: 8.49 µM [inhibitor, partial curve]"}
{"smiles": "CCOc1ccc(CN2CCCC(N3CCN(c4ccc(OC)cc4)CC3)C2)cc1", "note": "(stereo not drawn)", "Potency": "inconclusive: 16.9 µM [inhibitor, partial curve]"}
{"smiles": "CN(C)c1ccc(/C=C2\\c3ccccc3-c3ccc(N(C)C)cc32)cc1", "Potency": "active: 5.36 µM"}
{"smiles": "N#Cc1c(=O)c2nc(NCc3ccccc3)ncc2n2ccccc12", "Potency": "inconclusive: 6.01 µM [inhibitor, partial curve]"}
{"smiles": "COc1cc(NC(=O)c2ccc(OCc3c(C)noc3C)c(OC)c2)cc(OC)c1", "Potency": "inconclusive: 9.53 µM [inhibitor, partial curve]"}
{"smiles": "CCC(=O)Oc1ccc(C(=O)Nc2c[nH]c(=O)[nH]c2=O)cc1", "Potency": "inconclusive: 16.9 µM [inhibitor, partial curve]"}
{"smiles": "O=C(/C=C/c1ccco1)Nc1ccccc1N1CCCC1", "Potency": "inconclusive: 15.1 µM [inhibitor, partial curve]"}
{"smiles": "Cc1cccc(C)c1OCc1cc(C(=O)N2CCN(c3ccccc3)CC2C)no1", "note": "(stereo not drawn)", "activity change, negative = inhibition": "inactive: -11.7%"}
{"smiles": "COc1cccc(Nc2nc(-c3sc(C)nc3C)cs2)c1", "Potency": "inconclusive: 21.3 µM [inhibitor, partial curve]"}
{"smiles": "NC(=O)c1ccc(NC(=O)CSC(=O)c2ccccc2)cc1", "Potency": "inconclusive: 19 µM [inhibitor, partial curve]"}
{"smiles": "CCOC(=O)c1cc2c(N)c(C(=O)c3ccc(Br)cc3)sc2[nH]c1=O", "Potency": "active: 1.9 µM"}
{"smiles": "CS(=O)(=O)c1ccc2nc(NC(=O)c3ccccc3Cl)sc2c1", "activity change, negative = inhibition": "inactive: -4.83%"}
{"smiles": "COc1ccc(NC(=O)c2ccc3[nH]c(C)c(C)c3c2)cc1", "Potency": "inconclusive: 15.1 µM [inhibitor, partial curve]"}
{"smiles": "CN(Cc1cn(-c2ccccc2)nc1-c1ccc2c(c1)OCO2)Cc1nccn1C", "Potency": "inconclusive: 16.9 µM [inhibitor, partial curve]"}
{"smiles": "CC(C)c1nnc(NC(=O)CSc2nnc(-c3ccco3)o2)s1", "Potency": "inconclusive: 21.3 µM [inhibitor, partial curve]"}
{"smiles": "CCN(CC)C(=O)c1ccc(O)c(OC)c1", "activity change, negative = inhibition": "inactive: 1.29%"}
{"smiles": "CCc1ccc2nc(N(CCN(C)C)C(=O)c3ccc4ncsc4c3)sc2c1", "Potency": "inconclusive: 16.9 µM [inhibitor, partial curve]"}
{"smiles": "COc1cccc(C2c3[nH]c4ccccc4c3CCN2Cc2cccn2-c2ncccn2)c1", "note": "(stereo not drawn)", "Potency": "inconclusive: 21.3 µM [inhibitor, partial curve]"}
{"smiles": "COc1ccc(N2CCN(CCS(=O)(=O)c3cc(Cl)ccc3Cl)CC2)cc1", "Potency": "inconclusive: 16.9 µM [inhibitor, partial curve]"}
{"smiles": "CN(CCCc1cnc[nH]1)C(=S)NCCCN(Cc1ccc(Cl)cc1)c1ccc(Br)cn1", "Potency": "active: 19 µM"}
{"smiles": "O=C(Nc1ccc(-c2nc3cccnc3s2)cc1)C1CCCO1", "note": "(stereo not drawn)", "activity change, negative = inhibition": "inactive: -24.1%"}
{"smiles": "CCC(C)Nc1ccc(NC(C)CC)cc1", "note": "(stereo not drawn)", "Potency": "active: 0.0953 µM"}
{"smiles": "O=C(CCS(=O)(=O)c1ccc(F)cc1)Nc1nc(-c2ccccn2)cs1", "Potency": "active: 13.5 µM"}
{"smiles": "CCOC(=O)CN1C(=O)/C(=C2\\SC(=S)N(NC(=O)c3cccnc3)C2=O)c2ccccc21", "Potency": "active: 19 µM"}
{"smiles": "CC1CS(=O)(=O)CCN1N=Cc1ccc([N+](=O)[O-])o1", "note": "(stereo not drawn)", "activity change, negative = inhibition": "inactive: -2.82%"}
{"smiles": "O=S(=O)(c1ccc(Cl)cc1)N1CCOCC1", "activity change, negative = inhibition": "inactive: 0.87%"}
{"smiles": "O=C(O)c1cccc(Nc2nc(-c3ccccc3)nc3ccccc23)c1", "Potency": "active: 9.53 µM"}
{"smiles": "Cc1csc(NC(=O)c2ccc[nH]c2=O)n1", "Potency": "inconclusive: 19 µM [inhibitor, partial curve]"}
{"smiles": "O=C(Nc1ccon1)c1ccc(N2CCCCC2)c([N+](=O)[O-])c1", "Potency": "inconclusive: 21.3 µM [inhibitor, single point]"}
{"smiles": "Cc1ccc(-c2nnc(Nc3ccc(O)cc3)c3ccccc23)cc1S(=O)(=O)NCCO", "Potency": "inconclusive: 16.9 µM [inhibitor, partial curve]"}
{"smiles": "COc1ccccc1N1CCN(/N=C/c2ccc([N+](=O)[O-])cc2)CC1", "Potency": "inconclusive: 7.57 µM [inhibitor, partial curve]"}
{"smiles": "COc1cc2c(cc1N)-c1ccc(N)cc1C2=O", "Potency": "inconclusive: 19 µM [inhibitor, partial curve]"}
{"smiles": "O=C(Nc1ccc(Cl)c(S(=O)(=O)N2CCOCC2)c1)c1ccc2c(c1)OCO2", "Potency": "inconclusive: 8.49 µM [inhibitor, partial curve]"}
{"smiles": "NCC(=O)Nc1ccc(Cl)cc1C(=O)c1ccc[nH]1", "activity change, negative = inhibition": "inactive: -11.7%"}
{"smiles": "O=C(Nc1sc2c(c1C(=O)O)CCC2)c1ccccc1F", "Potency": "inconclusive: 23.9 µM [inhibitor, partial curve]"}
{"smiles": "Cc1c(CCC(=O)NCCCCCC(=O)O)c(=O)oc2cc3occ(-c4ccccc4)c3cc12", "Potency": "active: 15.1 µM"}
{"smiles": "Oc1ccc(Cl)cc1CNc1cccc2cccnc12", "Potency": "inconclusive: 6.01 µM [inhibitor, partial curve]"}
{"smiles": "O=C(Nc1cccc(S(=O)(=O)N2CCCC2)c1)c1ccc(Cl)nc1", "Potency": "inconclusive: 21.3 µM [inhibitor, partial curve]"}
{"smiles": "O=C(CC1(O)C(=O)Nc2ccccc21)c1ccccc1", "note": "(stereo not drawn)", "activity change, negative = inhibition": "inactive: 0.66%"}
{"smiles": "COc1ccccc1NC(=O)c1ccc(NC(=O)Cc2n[nH]c(=O)c3ccccc23)cc1", "activity change, negative = inhibition": "inactive: -15.9%"}
{"smiles": "O=C(O)C1=C[C@@H](c2csc3ccccc23)C[C@@H](OCc2ccc(CO)cc2)O1", "activity change, negative = inhibition": "inactive: -18%"}
{"smiles": "CN(Cc1ncc[nH]1)Cc1cn(-c2ccccc2)nc1-c1ccc2c(c1)OCO2", "Potency": "inconclusive: 21.3 µM [inhibitor, single point]"}
{"smiles": "Nc1c(N=Nc2ccc([N+](=O)[O-])cc2)c(S(=O)(=O)O)cc2cc(S(=O)(=O)O)c(/C=C/c3ccccc3)c(O)c12", "Potency": "active: 7.57 µM"}
{"smiles": "Cc1cc(-c2cccs2)c2c(n1)sc1c(=O)[nH]c(=O)[nH]c12", "Potency": "inconclusive: 16.9 µM [inhibitor, partial curve]"}
{"smiles": "Cc1ccc(C(=O)Nc2ccc(O)cc2C(=O)O)cc1C", "Potency": "inconclusive: 19 µM [inhibitor, partial curve]"}
{"smiles": "COc1ccccc1C(=O)Nc1c[nH]c(=O)[nH]c1=O", "activity change, negative = inhibition": "inactive: -25.1%"}
{"smiles": "COC(=O)C(Sc1ccc(Cl)cc1)C1SC(=S)N(Cc2ccccc2)C1=O", "note": "(stereo not drawn)", "activity change, negative = inhibition": "inactive: -27.9%"}
{"smiles": "S=C(Nc1ccccc1)c1nc2ccccc2s1", "Potency": "inconclusive: 8.49 µM [inhibitor, partial curve]"}
{"smiles": "CC(=O)Oc1ccc(N2C(=O)c3cccc4c([N+](=O)[O-])ccc(c34)C2=O)cc1", "activity change, negative = inhibition": "inactive: -22.5%"}
{"smiles": "COc1cc([C@H]2Oc3cc([C@H]4Oc5cc(O)cc(O)c5C(=O)[C@@H]4O)ccc3O[C@@H]2CO)ccc1O", "activity change, negative = inhibition": "inactive: -19.7%"}
{"smiles": "CC(=O)Oc1ccc(C(=O)Nc2cccc(C(=O)c3cccc(NC(=O)c4ccc(OC(C)=O)cc4)c3)c2)cc1", "Potency": "inconclusive: 1.51 µM [inhibitor, full curve]"}
{"smiles": "N#C/C(=C\\c1ccc(OC(=O)c2ccc(Br)s2)cc1)c1nc2ccccc2[nH]1", "activity change, negative = inhibition": "inactive: -29.8%"}
{"smiles": "COc1cccc(C(=O)Nc2ccc3c(c2)n(C)c(=O)n3C)c1", "Potency": "inconclusive: 21.3 µM [inhibitor, partial curve]"}
{"smiles": "CN1CCN(c2ccc(CNC(=O)C3Cc4c(-c5ccccc5Oc5ccccc5)ccnc4O3)cc2)CC1", "note": "(stereo not drawn)", "Potency": "inconclusive: 19 µM [inhibitor, partial curve]"}
{"smiles": "CC1=C(C(=O)OC(C)C)C(c2ccc(N(C)C)cc2)C2=C(CC(C)(C)CC2=O)N1", "note": "(stereo not drawn)", "Potency": "inconclusive: 23.9 µM [inhibitor, partial curve]"}
{"smiles": "CCN(CC)CCSc1nnc2c3ccccc3n(CCc3ccccc3)c2n1", "Potency": "inconclusive: 19 µM [inhibitor, partial curve]"}
{"smiles": "O=C(NCCC1=CCCCC1)c1[nH]c(C(F)(F)F)nc1-c1ccccc1", "Potency": "inconclusive: 19 µM [inhibitor, single point]"}
